# Measured values as given in PubChem BioAssay AID2685 (National Center for Advancing Translational Sciences (NCATS), 2010).
# The other results are listed elsewhere or left out. These are further read-outs of the screen, such as a control signal, another cell line or another target. No call is given for them. The list favours compounds with an active or inconclusive main result. Words in brackets tell the shape of the fitted curve; partial curves, single points and poor fits give uncertain potencies.
# Assay: qHTS Assay for Lipid Storage Modulators in Drosophila S3 Cells;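 for cell number change: cells counted by Cell Tracker Red CMTPX staining in the red channel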
# Conditions: BODIPY lipid droplet fluorescence, 18-24 h; for cell number change: measured here: cell count max response, cells fed with added oleic acid
# Summary of the method: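 Drosophila S3 cells got compounds at several concentrations plus oleic acid (400 uM solution). Laser-scanning cytometry with 488 nm excitation read lipid droplets at 500-530 nm and cells at 575-640 nm. Percent activity was relative to 20 uM Triacsin C.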
# [1] = measured here: cell number channel AC50, cells fed with added oleic acid
# [2] = measured here: lipid fluorescence (Fed channel) AC50, cells fed with added oleic acid
SMILES,cell number change,AC50 [1],AC50 [2]
Cc1cccc(S(=O)(=O)N2CCCc3ccccc32)c1,-4.23%,"2.06 µM [falling, partial curve]","2.59 µM [falling, partial curve]"
Cc1sc2ncnc(OCC(=O)Nc3ccc4c(c3)OCCO4)c2c1C,–,"6.51 µM [rising, single point]","3.66 µM [rising, single point]"
O=C(COc1ccccc1)N1CCNC1=O,–,–,"13 µM [falling, partial curve]"
CCN(CC)CCN1C(=O)C(=O)/C(=C(/O)c2cnn(-c3ccccc3)c2C)C1c1cccnc1 (stereo not drawn),3.84%,"0.411 µM [falling, partial curve, poor fit]",–
Oc1cccc2ccc(/C=C/c3cccs3)nc12,-8.54%,–,"1.84 µM [rising, partial curve, poor fit]"
O=S(=O)(c1ccc(F)cc1)N1CCN(C(=S)NCC2CCCO2)CC1 (stereo not drawn),-0.961%,–,–
CCCCC(=O)N1CCN(c2nc3ccc(Cl)cc3s2)CC1,–,–,"6.51 µM [rising, partial curve, poor fit]"
O=C(COc1cccc(F)c1)Nc1ccc2[nH]c(=O)[nH]c2c1,-4.14%,"3.26 µM [rising, single point]",–
COc1ccc(S(=O)(=O)N(CCN2CCOCC2)Cc2cc(OC)ccc2OC)cc1,-4.69%,–,–
O=C(C1=C[C@@H](C2CCCCC2)C[C@@H](OCc2ccc(CO)cc2)O1)N1CCN(Cc2ccc3c(c2)OCO3)CC1,-10.8%,–,–
Cc1ccc(Nc2cc(C(=O)NCCCN3CCOCC3)c3ccccc3n2)c(C)c1,–,"3.66 µM [falling, single point]","4.11 µM [falling, single point]"
CCOC(=O)CNC1CC(=O)N(c2cccc(Cl)c2)C1=O (stereo not drawn),-34.9%,"0.0731 µM [falling, full curve, poor fit]","1.64 µM [falling, partial curve]"
COc1ccc(CN2CCCC(C(=O)Nc3cccc(-n4cccn4)c3)C2)cc1 (stereo not drawn),29.2%,–,"29.1 µM [rising, single point]"
O=C(c1cc(COc2ccc(F)cc2Cl)on1)N1CCCC(c2ccccc2)C1 (stereo not drawn),15.8%,"6.51 µM [rising, single point]","0.116 µM [rising, full curve, poor fit]"
CCCn1c(C)cc(/C=C(\C#N)C(=O)OCC(=O)N(C)c2c(N)n(Cc3ccccc3)c(=O)[nH]c2=O)c1C,2.01%,–,–
CCOC(=O)N1CCN(CC(O)COc2ccc(C)cc2C(C)(C)C)CC1 (stereo not drawn),-17.7%,–,"6.51 µM [falling, single point]"
NC(=O)c1c(NC(=O)CN2C(=O)CCC2=O)sc2c1CCCCC2,44.1%,–,–
CCOC(=O)c1ccc(NC(=O)NCc2ccccn2)cc1,12.1%,–,–
Cc1cnn(C(=S)NCC2CCCO2)c1 (stereo not drawn),-5.04%,–,"7.31 µM [falling, partial curve, poor fit]"
O=C(Nc1ccc(Oc2ccccc2)cc1)C1CCCN(c2ncccn2)C1 (stereo not drawn),14.9%,–,"0.411 µM [rising, partial curve, poor fit]"

SMILES,cell number change,AC50 [1],AC50 [2]
NS(=O)(=O)c1ccc(NC(=O)COc2ncnc3c2cnn3-c2ccccc2)cc1,141%,–,"6.51 µM [falling, single point]"
CCOC(=O)COc1ccc2c(=O)c(-c3ccccc3OC)coc2c1,-25.4%,–,"2.06 µM [falling, partial curve]"
CCCC(=O)C1=C(O)C(c2cccc(Oc3ccccc3)c2)CCC1=O (stereo not drawn),11.4%,"2.31 µM [falling, partial curve]",–
Cc1ccc(C(C(=O)NC2CCCC2)N(CCCO)C(=O)Cn2nnc(-c3ccc(C)o3)n2)cc1 (stereo not drawn),-14.5%,–,"35.5 µM [rising, single point]"
COc1cc(NC(=O)COC(=O)C=C(C)C)c(C)cc1[N+](=O)[O-],–,–,"2.91 µM [rising, partial curve, poor fit]"
COc1ccc2c(-c3ccccc3)cc(=O)[nH]c2c1,58.8%,"1.64 µM [rising, full curve]","2.06 µM [rising, partial curve]"
CCC(NC(=S)NC1CCCCC1)c1ccc(C)cc1 (stereo not drawn),-22.8%,–,"29.1 µM [falling, single point]"
CCCn1c(C)cc(C(=O)Cn2nnc3ccccc3c2=O)c1C,23.5%,"0.411 µM [rising, single point]","1.03 µM [rising, full curve, poor fit]"
Nc1nc(CSc2ccccc2)nc(N2CCCCC2)n1,39.1%,"0.259 µM [rising, full curve]",–
COc1ccc(C)cc1NC(=O)c1ccc(NC(=O)CC2SC(N3CCCC3)=NC2=O)cc1 (stereo not drawn),-15.8%,–,–
COC(=O)c1ccsc1NC(=O)c1ccco1,6.48%,–,–
COC(=O)CN1C(=O)COc2ccc(S(=O)(=O)N3CCCCCC3)cc21,-27.3%,–,"29.1 µM [falling, single point]"
CN(CC(=O)Nc1cccc(S(=O)(=O)NC2=NCCC2)c1)Cc1cccc(F)c1,22.4%,–,–
Cc1ccc(COC(=O)c2nn(-c3ccccc3)nc2N)cc1,–,–,"2.91 µM [falling, single point]"
O=C(NCC(c1cccnc1)N1CCN(c2ccc(F)cc2)CC1)OCc1ccccc1 (stereo not drawn),-37.4%,"32.6 µM [falling, partial curve, poor fit]","0.164 µM [rising, full curve]"
Cc1ccc(S(=O)(=O)N2CCN(C(=O)N3CCOCC3)CC2)c(C)c1,18.1%,"0.184 µM [rising, partial curve, poor fit]",–
O=S(=O)(NN1CCOCC1)c1cc(Cl)cc(Cl)c1O,-24.8%,"5.8 µM [rising, single point]","11.6 µM [falling, single point]"
CC(=O)c1cccc(NC(=O)c2ccccc2N(Cc2ccccc2)S(C)(=O)=O)c1,-65.4%,"29.1 µM [falling, single point]",–
CCOC(=O)N1CCC(Nc2c(NCCCN3CCN(CC)CC3)c(=O)c2=O)CC1,-38.4%,"20.6 µM [falling, single point]","20.6 µM [falling, partial curve]"

# Just cell number change and AC50 [2], for 2 of the compounds above:
SMILES	cell number change	AC50 [2]
Cc1ccc(COC(=O)c2nn(-c3ccccc3)nc2N)cc1	–	2.91 µM [falling, single point]
CC(=O)c1cccc(NC(=O)c2ccccc2N(Cc2ccccc2)S(C)(=O)=O)c1	-65.4%	–
